Test results: the supplement of paper PMC7125110
± gives the standard error. The uncertainty is large for many entries.

B1: glmS ribozyme (parent)
chain: AUAAAAGCGCCAGAACUACAGAAAUGUAGUUGACGAGGAGGAGGUUUAUCGAAUUUUCGGCGGAUGCCUCCAAA

Variants of: B1
Assay: self-cleavage kobs at 160 uM GlcN6P; higher = faster cleavage; RNA array
Conditions: with glucosamine-6-phosphate
Outline: (§1)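 kcat and KM were obtained from weighted Michaelis–Menten fits across concentrations of kobs values. Those came from one- or two-exponential decay fits to per-tile medians normalised to baseline and to non-cleaving reference variants. The variants were barcoded ribozymes transcribed in situ by E. coli RNA polymerase on sequenced MiSeq chips and tracked through a hybridised Cy3 probe at 37 °C, with 40 μM to 10 mM glucosamine-6-phosphate in HEPES/KCl/Mg(OAc)2 buffer flowed in.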

Variant | self-cleavage kobs at 160 uM GlcN6P [s⁻¹]
A52U C67G | 1.54e-05 ± 1e-05
A52U C67U | 1.92e-05 ± 9.9e-06
A48G C70U | 2.32e-05 ± 1.7e-05
U46C U69G | 3.93e-05 ± 2.3e-05
U49G C68G | 2.34e-05 ± 2e-05
C61A C67U C71U | 2.42e-05 ± 2.1e-05
C10A A14C C71A | 3.12e-05 ± 2.9e-05
G32U U69G | 5.39e-05 ± 2.9e-05
C50G A52G G60U C71U | 3.15e-05 ± 1.9e-05
A64G C67G | 2.73e-05 ± 1.7e-05
A6U C70A | 1.59e-05 ± 1.3e-05
C11G C50A C58U | 2.75e-05 ± 1.9e-05

Variants of: B1
Assay: self-cleavage kobs at 640 uM GlcN6P; higher = faster cleavage; RNA array
Conditions: with glucosamine-6-phosphate
Outline: as §1

Variant | self-cleavage kobs at 640 uM GlcN6P [s⁻¹]
G29C C67G | 2.81e-05 ± 1.5e-05
A14C C16U G29C G60A C68U | 3.4e-05 ± 2.6e-05
C11G C68G | 2.78e-05 ± 1.5e-05
G38A U54G C68A | 3.67e-05 ± 2.9e-05
A53C A64C | 3e-05 ± 2.1e-05
A12G G51A C70A | 2.99e-05 ± 2.8e-05
U49G C68G | 3.13e-05 ± 1.6e-05
G13U A14U G59C C68A | 2.46e-05 ± 2.4e-05
U30G C67U C71G | 6.61e-05 ± 3.6e-05
C50A A53G C58U U69C | 4.32e-05 ± 2.3e-05
C58U U69C | 1.32e-05 ± 1.3e-05
U30C A53C | 1.99e-05 ± 1.5e-05
G29A A64G C67G | 4.34e-05 ± 3.8e-05
C8A C34U U69A | 0.000113 ± 6.1e-05
G40A C70U | 0.000343 ± 0.00018
U30G A42G U65G C67U | 4.36e-05 ± 2.7e-05

Variant | self-cleavage kobs at 640 uM GlcN6P [s⁻¹]
G13U U45C | 2.11e-05 ± 1.9e-05
A36U G51U U69G | 9.49e-05 ± 5.6e-05
U54A U55A | 0.0216 ± 0.011
C11G C34G G35C G38U C70G | 4.33e-05 ± 3.1e-05
C11A A15C U54G | 3.04e-05 ± 2.6e-05
C10A C67U C71G | 6.59e-05 ± 3.5e-05
A6C C10U C67G U69A | 3.16e-05 ± 2.2e-05
A52G U57A C70A | 3.37e-05 ± 2e-05
A6C U30C U56G C70A | 4.47e-05 ± 4.3e-05
A15U U54G C58A | 3.41e-05 ± 2.2e-05
C68G C71U | 1.3e-05 ± 1.3e-05
A33U G37U U69A | 4.26e-05 ± 2.8e-05
C16U G51C C68G | 3.73e-05 ± 2.1e-05
C50G A53U G63U U69A | 5.07e-05 ± 3.1e-05
G51A U55G C70U | 2.65e-05 ± 2.1e-05
C10U A14G C68G | 3.92e-05 ± 2.3e-05

Variants of: B1
Assay: self-cleavage kobs at 2500 uM GlcN6P; higher = faster cleavage; RNA array
Conditions: with glucosamine-6-phosphate
Outline: as §1

Variant | self-cleavage kobs at 2500 uM GlcN6P [s⁻¹]
G38A U54G C68A | 2.48e-05 ± 2.4e-05
A6U G62C G63A C70A | 3.2e-05 ± 3.1e-05
A14C C67U C70U | 3.39e-05 ± 1.7e-05
G26U C50G A52C U56G G66C C67U C71U | 9.98e-05 ± 7.4e-05
C61A C67U C71U | 3.78e-05 ± 2e-05
U30A A52U C67G | 3.78e-05 ± 1.9e-05
A14G C50U U55C | 2.51e-05 ± 1.7e-05
C8U G62A C70U | 3.95e-05 ± 2e-05
C50A A53G C58U U69C | 4.01e-05 ± 2e-05
C8A C34U U69A | 4.11e-05 ± 3.2e-05
A14U A52U C61A C68U | 2.33e-05 ± 2.2e-05
G35A C50U C67G C70U | 3.74e-05 ± 3.5e-05
U54A U55A | 0.0595 ± 0.033
G32U U69G | 6.66e-05 ± 5.8e-05
A6U A12U C70U C71G | 2.96e-05 ± 2.4e-05
A6U C16U A39U | 1.93e-05 ± 1.5e-05
C11G C34G G35C G38U C70G | 4.1e-05 ± 3.6e-05
C11U U65G C67G | 8.37e-05 ± 5.1e-05
A6G U46G | 2.58e-05 ± 1.3e-05
G29U U46G C58G C67A | 6.82e-05 ± 4.3e-05
A33G G38U U65A C70G | 4.32e-05 ± 2.6e-05
A14G G29C U47G | 2.09e-05 ± 1.8e-05
A14C A48U | 2.77e-05 ± 2.3e-05
C16U G51C C68G | 2.93e-05 ± 2.8e-05
U30A A53U C70U | 0.000196 ± 0.00014
A6G G29A | 3.17e-05 ± 2.5e-05
G9U G32C C34G C58U C68G | 3.05e-05 ± 2.5e-05
C11U A33G C50U | 3.01e-05 ± 2.9e-05
C50U U54A C70A | 6.81e-05 ± 3.4e-05
C10U A14G C68G | 3.6e-05 ± 1.9e-05

Shown field by field: part of the list above.
G29U U46G C58G C67A
  self-cleavage kobs at 2500 uM GlcN6P [s⁻¹] = 6.82e-05 ± 4.3e-05
A33G G38U U65A C70G
  self-cleavage kobs at 2500 uM GlcN6P [s⁻¹] = 4.32e-05 ± 2.6e-05
A14G G29C U47G
  self-cleavage kobs at 2500 uM GlcN6P [s⁻¹] = 2.09e-05 ± 1.8e-05
A14C A48U
  self-cleavage kobs at 2500 uM GlcN6P [s⁻¹] = 2.77e-05 ± 2.3e-05

Variants of: B1
Assay: self-cleavage kobs at 10000 uM GlcN6P; higher = faster cleavage; RNA array
Conditions: with glucosamine-6-phosphate
Outline: as §1

Variant | self-cleavage kobs at 10000 uM GlcN6P [s⁻¹]
G9U G29U C50G C58A G63C | 2.43e-05 ± 2.4e-05
A6U U65G | 2.41e-05 ± 1.4e-05
A15U G44C | 2.04e-05 ± 1.2e-05
A36C C58A U65A C68G | 3.52e-05 ± 2e-05
A14G G43U U46G | 2.76e-05 ± 2.3e-05
A14C G40C U55A | 4.82e-05 ± 2.5e-05
A52G U55G U56G C67A U69G | 2.4e-05 ± 2.2e-05
C8G U57A C70A | 4.33e-05 ± 2.8e-05
C11A U49G C67G | 2.16e-05 ± 1.4e-05
A36U C50G | 0.000943 ± 0.00077
A6G G29A | 1.4e-05 ± 1.4e-05
C11G C61G C68G | 2.75e-05 ± 1.9e-05
C8U G37U A48U C70G | 2.45e-05 ± 2.3e-05

Variants of: B1
Assay: self-cleavage kobs at 40 uM GlcN6P; higher = faster cleavage; RNA array
Conditions: with glucosamine-6-phosphate
Outline: as §1

Variant | self-cleavage kobs at 40 uM GlcN6P [s⁻¹]
A53C C67A | 2.74e-05 ± 1.4e-05
A52G U55G U56G C67A U69G | 2.58e-05 ± 2.4e-05
U54A G66C | 1.78e-05 ± 1.1e-05
A42G A52G | 1.97e-05 ± 2e-05
G51A U55G C70U | 3.85e-05 ± 2.2e-05
